Laboratory results from the supplement of paper PMC3334620.
The full ranking holds about 33,000 sequences; the median of “E-score (-0.5 to 0.5)” is about -0.0034, and the highest 2% start at about 0.25. The list shows a part of the results.

Biological target: T1, Yap3 (UniProt P38749)
T1 sequence: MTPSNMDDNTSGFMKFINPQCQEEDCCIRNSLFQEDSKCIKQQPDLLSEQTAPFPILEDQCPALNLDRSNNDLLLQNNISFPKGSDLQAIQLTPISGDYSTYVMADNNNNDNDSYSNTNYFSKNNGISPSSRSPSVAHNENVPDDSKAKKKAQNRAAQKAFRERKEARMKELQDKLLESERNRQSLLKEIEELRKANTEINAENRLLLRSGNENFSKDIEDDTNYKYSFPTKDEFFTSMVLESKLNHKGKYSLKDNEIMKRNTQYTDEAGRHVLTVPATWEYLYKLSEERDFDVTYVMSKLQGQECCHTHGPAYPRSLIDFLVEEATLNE
Assay: PBM E-score (8-mer binding enrichment) (E-score (-0.5 to 0.5)); higher = stronger / more preferred TF binding
Details: protein concentration: 100 nM; construct: GST-full length
Procedure, shortened: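 E-scores (a modified Wilcoxon-Mann-Whitney statistic) were assigned by the Universal PBM Analysis Suite to every ungapped eight-base word pooled with its reverse complement. The input came from universal all-10-mer Agilent arrays made double-stranded by primer extension and probed with GST-tagged yeast transcription factors at about 100-200 nM. Fluorescent anti-GST detected bound protein, and masliner normalised the scans.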

Row | Sequence | PBM E-score
1 | ATATAATG | 0.2
2 | ACTGTGGG | -0.0714
3 | CACCAGTC | -0.238
4 | ATCGTAGG | -0.0234
5 | GCGACACA | 0.0116
6 | CCTAACCA | 0.0402
7 | AGAGACCG | -0.152
8 | ATTGTCAC | 0.0499
9 | GCCCAATA | 0.0672
10 | GGTCGTTA | 0.0836
11 | CCCCGCTA | -0.0173
12 | GGGTAGCA | -0.108
13 | TCACCAGA | -0.226
14 | GTGCCACA | -0.0385
15 | ATGTTGCA | 0.0661
16 | AAAGGTCA | 0.0579
17 | TACAATAA | 0.0961
18 | GGGACGAC | -0.162
19 | AGCGACGA | -0.145
20 | TACCATAA | 0.118
21 | ACTATCCC | -0.176
22 | CGGGTAAG | -0.0764
23 | CGTTAAAA | -0.059
24 | AAGAGCGC | 0.0795
25 | ACCCCCGG | -0.349

Row | Sequence | PBM E-score
26 | GGAACACA | 0.023
27 | AAAGCGGA | -0.0859
28 | CACTGCCC | -0.135
29 | AGGCGGCG | -0.215
30 | CATCCGAA | 0.0482
31 | CGGCCGTC | -0.156
32 | CTTGGAGC | -0.106
33 | GCACCTCC | -0.276
34 | GCCGTATA | 0.141
35 | CATGGAGC | -0.153
36 | CCAAGAAG | -0.0368
37 | CCGCATAA | 0.243
38 | ACTATTCG | 0.231
39 | CTGACATA | 0.0984
40 | CGGCACTA | 0.0257
41 | AAATCTTA | 0.124
42 | CTTTCGTC | 0.01
43 | CTGAGAGC | -0.199
44 | AGAGGTCC | -0.148
45 | ACTATAAC | 0.091
46 | CGAACTAC | 0.0201
47 | GATTGCAA | 0.1
48 | ACAGTAGC | -0.0761
49 | AGATGCGC | 0.0107
50 | CGATTCGC | -0.0311

Some of the entries so far, as a markdown table:

| Row | Sequence | PBM E-score |
| --- | --- | --- |
| 5 | GCGACACA | 0.0116 |
| 21 | ACTATCCC | -0.176 |
| 36 | CCAAGAAG | -0.0368 |
| 39 | CTGACATA | 0.0984 |
| 40 | CGGCACTA | 0.0257 |
| 48 | ACAGTAGC | -0.0761 |

Next part.

Row | Sequence | PBM E-score
51 | GCCGACGA | 0.0586
52 | ACGTAGAC | -0.198
53 | TAATATCA | 0.275
54 | CGTAAAGC | -0.171
55 | AGAAAAGC | 0.0572
56 | GGCGCACA | 0.0136
57 | GACGAGAA | 0.0689
58 | CCCGGTAG | -0.115
59 | CTCATCCA | -0.0177
60 | TTGGGAAA | 0.223
61 | ATCTTACA | 0.175
62 | TACTAGGA | -0.0117
63 | CCAATCGG | -0.0517
64 | ACCGAGCC | -0.0471
65 | AGGACACT | -0.208
66 | AGCAATCG | 0.167
67 | CAATTGGG | -0.0642
68 | GACTGGCA | -0.298
69 | ACCCAATC | 0.0372
70 | AGAACCAA | 0.0511
71 | AGGATTGA | 0.129
72 | CTGGGCGC | -0.229
73 | AGAAGGAG | -0.173
74 | CCCGCTCA | -0.117
75 | ATGGCCGG | -0.0591

Row | Sequence | PBM E-score
76 | GAGTGATA | 0.13
77 | AACGCCAA | 0.0473
78 | GGAACCCA | -0.0711
79 | CATTCCAG | -0.117
80 | ATGTGGCC | 0.00028
81 | AGTGTGGC | 0.105
82 | CATTGTTA | 0.146
83 | CTCTCTGA | -0.15
84 | CTAACCGA | -0.0167
85 | ATCTTGTC | 0.0814
86 | CCTTCGCG | 0.0288
87 | CATTATGG | -0.00868
88 | CGCATGGA | -0.109
89 | ATACGGTC | -0.0146
90 | ATTGGTTC | 0.131
91 | ATTGCGCA | 0.0929
92 | TACCACGA | -0.0297
93 | CGAAGCTC | -0.299
94 | GGACTCGA | -0.128
95 | GATCGAGA | -0.0834
96 | CAAAACCG | 0.00322
97 | CGACACAC | 0.0631
98 | CGGAATGA | 0.127
99 | AGACAGAG | -0.101
100 | ATGCAGCC | -0.0399

Row | Sequence | PBM E-score
101 | AAGCGAGG | 0.0466
102 | ACTACTTC | -0.0154
103 | CAGTCTAC | -0.192
104 | CGGCAACC | -0.213
105 | AGGGAAAT | 0.124
106 | AGGCGCAG | -0.278
107 | GATATATA | 0.271
108 | CGCTATGC | -0.127
109 | TGCTCTAA | -0.0432
110 | GCCATTCC | -0.183
111 | ATTCTGTG | 0.0716
112 | GGCTTCTA | -0.0586
113 | ACACCACC | -0.209
114 | GGTATAAA | 0.239
115 | CCTTCATC | -0.195
116 | GAATGCTA | -0.0399
117 | GACCGCTA | -0.212
118 | TAACATAA | 0.337
119 | GGTACCTA | -0.123
120 | CGATTAGA | 0.111
121 | ATCAGATA | 0.093
122 | CGGATAGA | 0.0808
123 | CCCACAGA | -0.107
124 | GTGGTGGA | -0.143
125 | AGACTAGG | -0.108

Row | Sequence | PBM E-score
126 | AACCTCGT | -0.0264
127 | ATCTTAGG | -0.0438
128 | TCTATACA | -0.0211
129 | CAAGCGTG | 0.0177
130 | GACTAAAC | -0.143
131 | CGCTCCGA | -0.0344
132 | ACAATGGA | 0.232
133 | ACGCTTCC | -0.164
134 | CTGTACTC | -0.0104
135 | CGACTGAA | -0.127
136 | ACCCCCCA | -0.392
137 | AATCCGAC | 0.083
138 | AGTGGGCG | -0.0685
139 | CGTACTAA | 0.159
140 | GAAAGATA | 0.217
141 | GGTGGCCA | -0.0595
142 | TCTCTTAA | 0.0795
143 | AAACATGA | 0.128
144 | ACCGGTAG | -0.115
145 | CTTTGACA | 0.0503
146 | CACCAGCC | -0.18
147 | ACGGATAC | 0.221
148 | TATAGCGA | 0.00354
149 | CTTCGCAA | -0.0143
150 | GGGCCATA | -0.151

Row | Sequence | PBM E-score
151 | AATAATCG | 0.107
152 | GCTCATAA | 0.108
153 | ATCAGGTC | -0.0386
154 | AGTGTCCC | -0.0809
155 | GATGGGTA | 0.0638
156 | AAAGTGGC | -0.0557
157 | ATGATAAT | 0.201
158 | ATGCTCGA | 0.086
159 | CCGTCCCA | -0.141
160 | CACAAGTC | -0.135
161 | GGCCTGGA | -0.275
162 | ACGGGGAC | -0.211
163 | GAAAGAAC | 0.129
164 | CGTTGACA | 0.00207
165 | AGGAAGAA | 0.0113
166 | AGCTTTAC | -0.0481
167 | AGATAACC | -0.0141
168 | ACTACCAA | -0.1
169 | ACCGCGGA | 0.0221
170 | GCCCAGCA | -0.301
171 | CAGAGACG | -0.0347
172 | AGTGAGAG | -0.0512
